PubChem BioAssay AID504467 (National Center for Advancing Translational Sciences (NCATS), 2011)
About 7,700 (2.3%) of roughly 330,000 compounds were called active. The shares of active, inactive and inconclusive entries below differ from those in the screen. Calls follow the shape of the dose curve; as a rule, active = well fitted inhibition curve with a large enough effect; inconclusive = small, poorly fitted or top-dose-only effect, or effect the other way; inactive = flat fitted curve, though single readings scatter. A potency beside an inconclusive call is a rough fit, not a confirmed value.

assay: qHTS screen for small molecules that inhibit ELG1-dependent DNA repair in human embryonic kidney (HEK293T) cells expressing luciferase-tagged ELG1; conditions: HEK293T ELG1-luciferase reporter, luminescence, 16 h, DNA damage induced by 5-fluorouridine; activity change, negative = inhibition: at 46.1 µM (top of the series); also: nearly all actives have a fitted effect of over 55% in size
Description: NIH Molecular Libraries Probe Production Network [MLPCN] NIH Chemical Genomics Center [NCGC] MLPCN Grant: 1 R03 MH092164-01 Assay Provider: Kyungjae Myung, NHGRI, NIH Keywords: MLPCN, qHTS, NCGC, genotoxicity, cancer Assay Overview: Cancer cells divide rapidly compared to normal cells in the body. During cell division, cancer cells need to duplicate their genome by DNA replication. The failure of genome duplication leads to cancer cells' death. Therefore, inhibitors of DNA replication could specifically kill cancer cells. Based on this concept, many chemotherapeutic agents were developed and have been used to treat cancer patients. However, there are a limited number of agents available in the clinical setting, and some of those that do exist have low efficacy and severe side effects. Therefore, if we can find the compounds that effectively block DNA replication either by directly damaging DNA or by inhibiting other cellular mechanisms, the options for cancer treatment will be broadened. With this in mind, we developed a quantitative high-throughput ELG1-luciferase reporter gene assay. Small molecules that specifically block ELG1 function in response to DNA damage can be identified by monitoring the suppression of luciferase activity. Since ELG1 defines a pathway for repairing DNA damage, agents blocking ELG1 function can be used to sensitize cancer cells to chemotherapeutic agents whose mechanism of action involves the induction of DNA damage.
Assay Protocol Summary: For genotoxicity screening, 2,000 cells in 4 uL/well were dispensed into white, solid-bottom 1536-well plates using a solenoid-based dispenser. Following transfer of 1 uL 5-Fluorouridine and 23 nL compound or DMSO vehicle by a pin tool, the plates were incubated 16 hr at 37 °C and 5% CO2. 5 ul ONE-Glo (Promega) was then added to each plate and following a 30 min incubation at room temperature, luciferase activity was quantified on a ViewLux CCD-based plate reader.
% is scaled to controls: 0 for no effect and ±100 for the full control effect; potency is read from the fitted curve at half-maximal effect.

Compound	Potency	activity change, negative = inhibition
CCCc1nn(C)c2c1C(c1ccncc1)C(C#N)=C(N)O2 (configuration not stated)	inactive	–
COc1cccc(NC(=O)CN(C)C(=O)c2ccc(-c3cccc(C(F)(F)F)c3)o2)c1	inactive	–
O=C(Nc1ccc2[nH]ccc2c1)c1ccc(F)cc1	inconclusive: 1.16 µM [activator, partial curve]	–
COc1ccc(CC(=O)NCc2ccccc2)cc1S(=O)(=O)N1CCOCC1	inactive	–
CCCc1c(C)c2ccc(OCC(C)=O)cc2oc1=O	inconclusive: 7.31 µM [activator, partial curve]	–
CCOC(=O)c1c(N2C(=O)Nc3ccccc3N2O)n[nH]c1-c1cccc(Cl)c1	inconclusive: 29.1 µM [inhibitor, single point]	–
O=C(OCC(=O)N1CCc2ccccc21)[C@@H]1CCCN1S(=O)(=O)c1ccccc1F	inconclusive: 18.3 µM [activator, single point]	–
O=C(NCc1ccncc1)Nc1ccccc1F	inconclusive: 18.3 µM [activator, partial curve, poor fit]	–
COc1ccc(OCCn2ccnc2C)cc1	inconclusive: 0.103 µM [inhibitor, partial curve, poor fit]	–
Cc1ccc(C)c(S(=O)(=O)NCCN2CCOCC2)c1	inactive	–
COc1ccc(CN2CCC(=O)N([C@H](CO)Cc3ccccc3)CC2)cc1	inconclusive: 13 µM [activator, partial curve, poor fit]	–
CCOC(=O)c1ccc2[nH]c3c(c2c1)CCCC3O (configuration not stated)	inconclusive: 20.6 µM [activator, single point]	–
O=C(COC(=O)c1ccc(Cl)c(S(=O)(=O)N2CCCCC2)c1)NCCc1ccccc1	inactive	–
Oc1ccc(Cl)cc1N=Cc1sc2ccccc2c1Cl	inconclusive: 10.3 µM [inhibitor, partial curve]	–
COC(=O)c1c(C)[nH]c(C(=O)/C=C/c2cccc(Cl)c2)c1C	inconclusive: 16.4 µM [activator, partial curve]	–
CC1=C(C(=O)OCCOC(C)C)C(c2cc3c(cc2Br)OCO3)C2=C(CCCC2=O)N1 (configuration not stated)	inconclusive: 29.1 µM [inhibitor, single point]	–
COc1ccc(Cl)cc1-n1c(=S)sc2c(=O)[nH]c(SCC(=O)C(C)(C)C)nc21	inconclusive: 20.6 µM [inhibitor, single point]	–
COc1ccc(C/C(C)=N/NS(=O)(=O)c2ccc(Br)cc2)cc1	inconclusive: 13 µM [activator, partial curve, poor fit]	–
COc1ccc(/C=C2/C(=O)N(Cc3ccccc3)N=C2C)cc1	inconclusive: 29.1 µM [activator, single point]	–
C=CCn1c(-c2cc(-c3ccc(C)cc3)nc3ccccc23)n[nH]c1=S	inconclusive: 23.1 µM [inhibitor, partial curve, poor fit]	–
CCN1CCN(c2ccc(S(=O)(=O)N3CCCCC3)cc2NC(=O)Cc2ccc(OC)cc2)CC1	inactive	–
O=C1CC(N(CCc2ccccc2)C(=S)Nc2ccccc2)C(=O)N1c1ccc(F)cc1 (configuration not stated)	inconclusive: 29.1 µM [inhibitor, single point]	–
Cc1cc(C)cc(OCC(=O)OCC(=O)NC2CCCCCC2)c1	inconclusive: 29.1 µM [activator, partial curve, poor fit]	–
CCCCNC(=S)N1CCN(c2ccccc2Cl)CC1	inactive	–

Random excerpt: four entries already listed, in no set order.
Compound	Potency	activity change, negative = inhibition
COc1cccc(NC(=O)CN(C)C(=O)c2ccc(-c3cccc(C(F)(F)F)c3)o2)c1	inactive	–
CCCCNC(=S)N1CCN(c2ccccc2Cl)CC1	inactive	–
COc1ccc(CC(=O)NCc2ccccc2)cc1S(=O)(=O)N1CCOCC1	inactive	–
CC1=C(C(=O)OCCOC(C)C)C(c2cc3c(cc2Br)OCO3)C2=C(CCCC2=O)N1 (configuration not stated)	inconclusive: 29.1 µM [inhibitor, single point]	–

(further entries)

Compound	Potency	activity change, negative = inhibition
C/C(=N\NC(N)=S)C1C2C3CC4C5CC(C42)C1C53 (configuration not stated)	inconclusive: 8.2 µM [inhibitor, partial curve]	–
Cc1ccc(Oc2c(C=O)c3ccccc3n2C)cc1	inconclusive: 11.6 µM [inhibitor, single point]	–
COc1ccccc1CNC(=O)[C@H](C)NC(=O)[C@@H]1Cc2ccccc2CN1	inactive	–
Cc1ccc(N2C(=O)c3ccc(N)cc3C2=O)cc1	inconclusive: 7.31 µM [activator, partial curve]	–
C[C@@H](NC(=O)c1ncn(C)c1C(=O)N[C@H](C)c1ccccc1)c1ccccc1	inconclusive: 11.6 µM [inhibitor, partial curve, poor fit]	–
CCOC(=O)c1cc(C#N)c(SCC(=O)Nc2ccc(C(C)=O)cc2)[nH]c1=O	inconclusive: 16.4 µM [activator, partial curve]	–
Cc1ccc(NC(=O)CN(C)C(=O)Cc2c(Cl)cccc2Cl)cc1	inactive	–
CC(Cc1cccs1)NC(=O)Nc1ccc([N+](=O)[O-])cc1 (configuration not stated)	inactive	–
COC(=O)CC(c1ccc(OC)c(OC)c1)c1ccc(OC)c(OC)c1	inactive	–
COc1ccc(Cn2nnc3c(=O)[nH]c(C4CCN(C(=O)c5ccccc5Cl)CC4)nc32)cc1	inconclusive: 29.1 µM [inhibitor, single point]	–
CCn1c(=N)n(CC(=O)c2ccco2)c2ccccc21	inactive	–
Cc1ccnc(NC(=O)c2cccc(NC(=O)COc3ccccc3)c2)c1	inactive	–
Cc1cc(C)cc(NC(=O)CCN2CCOCC2)c1	inactive	–
C=CCn1c(NCc2ccc(OC)cc2)nc2ccccc21	inconclusive: 11.2 µM [activator, single point]	–
CCN(CC)S(=O)(=O)c1ccc(N)cc1	inconclusive: 23.1 µM [activator, partial curve, poor fit]	–
Cc1ccc(Nc2nc(CSc3nnnn3-c3ccccc3)cc(=O)[nH]2)cc1	inconclusive: 29.1 µM [inhibitor, single point]	–
S=c1[nH]nc(-c2ccccn2)n1/N=C/c1ccc(Br)s1	inconclusive: 32.6 µM [activator, partial curve, poor fit]	–
O=C1c2ccccc2C(=O)N1CCSc1nncs1	inactive	–
CCN(CC)c1ccc(/C=C/c2cccc[n+]2C)c(OC)c1	inactive	–
CC(=O)Nc1ccc(S(=O)(=O)N2CCC(C(=O)c3ccc(Cl)cc3)CC2)cc1	active: 18.3 µM	–
COc1cccc(NC(=O)CN2C(=O)C(c3ccc(C)cc3)=NC23CCCCCC3)c1	inactive	–
COc1ccc(C2c3c(ccc4ccccc34)Oc3ncn4nc(Cc5ccccc5)nc4c32)cc1OC (configuration not stated)	inconclusive: 13 µM [activator, partial curve, poor fit]	–
CCCOC(=O)c1ccc(NC(=O)CCC(=O)OCC)cc1	inconclusive: 23.1 µM [activator, single point]	–
COc1ccc(/C=N/N(C)C2=NCCN2)c(OC)c1OC	inconclusive: 18.3 µM [activator, single point]	–

Compound	Potency	activity change, negative = inhibition
O=C(CSc1nnc(CNC(=O)c2c(F)cccc2F)o1)Nc1ccc2c(c1)OCCO2	inactive	–
COCCN(Cc1ccccc1)C(=O)c1ccc2c(c1)NC(=O)CS2	inactive	–
COc1ccc(-c2ccc(=O)[nH]n2)cc1	inactive	–
O=C(Nc1ccc2cn[nH]c2c1)c1ccccc1F	inconclusive: 5.17 µM [activator, partial curve]	–
CC1(C)Cc2ccccc2-c2nnc(SCC(=O)N3CCN(c4ccccc4)CC3)n21	active: 14.6 µM	–
CCOc1c(C)cnc2c1c(=O)n(Cc1ccc(Cl)cc1)c(=O)n2C	inactive	–
Cn1c(=O)[nH]c(=O)c2c1nc(N)n2Cc1ccccc1	inconclusive: 14.6 µM [activator, partial curve]	–
O=C(c1ccccc1)c1ccccc1N1C(=O)C=CC1=O	inconclusive: 29.1 µM [activator, single point]	–
Cc1nc2ccccc2c(=O)n1NC(=O)/C=C/c1ccccc1Cl	inactive	–
CS(=O)(=O)N1CCN(C2CCN(Cc3ccccc3)CC2)CC1	inactive	–
Cc1ccc(-c2nn(-c3cc(Cl)ccc3[N+](=O)[O-])c(=O)c3ccccc23)cc1C	inconclusive: 16.4 µM [inhibitor, single point]	–
Cc1nc(-c2ccccc2Cl)sc1C(=O)/C=C/N(C)C	inconclusive: 18.3 µM [activator, partial curve]	–
COc1cccc(/C=C/C(=O)OCC(=O)c2ccccc2)c1OC	inconclusive: 2.59 µM [activator, partial curve]	–
O=[N+]([O-])c1cnc(Nc2ccc(Cl)cn2)c([N+](=O)[O-])c1	inconclusive: 10.3 µM [inhibitor, partial curve]	–
COC(=O)c1ccccc1NC(=O)c1cc(-c2cccs2)on1	–	inconclusive: 10.9% [activator]
O=C(COC(=O)COc1ccc(Cl)cc1)Nc1ccc2c(c1)OCCO2	inconclusive: 29.1 µM [inhibitor, single point]	–
CCc1ccc(NC(=O)c2ccnc(C(C)(C)C)c2)cc1	inactive	–
COC(=O)[C@H](Cc1ccccc1)NC(=O)Nc1ccc(C)cc1	inactive	–
O=C(NCc1ccco1)Nc1ccc(Br)cc1Cl	inconclusive: 8.2 µM [activator, partial curve]	–
Cc1nn(C)c(C)c1C(C)NC(=O)c1cc(COc2ccc(F)c(F)c2)on1 (configuration not stated)	inconclusive: 13 µM [activator, partial curve]	–
C/C(=N\NC(=O)c1nnn(-c2nonc2N)c1C)c1ccc(-c2ccccc2)cc1	inconclusive: 7.3 µM [activator, partial curve, poor fit]	–
COc1cccc(N2CCN(C(=O)CN(c3ccc(C)cc3)S(=O)(=O)c3c(C)n[nH]c3C)CC2)c1	inconclusive: 23.1 µM [inhibitor, partial curve, poor fit]	–
CC(=O)c1ccc(NC(=O)C2CC(c3ccc(F)cc3)=NO2)cc1 (configuration not stated)	inconclusive: 4.11 µM [activator, partial curve, poor fit]	–
CC1(C)CC(=O)C(C=Nc2ccccc2)=C(O)C1	inactive	–
